Data from PubChem BioAssay AID529 (NMMLSC, 2006).
About 50 (0.2%) of roughly 24,000 compounds were called active. This list was built around the results that the source calls inconclusive (neither active nor inactive); the mix of calls is not that of the screen.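 How the source made its calls: active means inhibition above 50%; inconclusive means compound itself fluorescent, judged against control cell fluorescence; inactive means the rest.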

By UniProt entry, the sequences of proteins in these tests, tags left out.
UniProt P13612, whole entry, looked up: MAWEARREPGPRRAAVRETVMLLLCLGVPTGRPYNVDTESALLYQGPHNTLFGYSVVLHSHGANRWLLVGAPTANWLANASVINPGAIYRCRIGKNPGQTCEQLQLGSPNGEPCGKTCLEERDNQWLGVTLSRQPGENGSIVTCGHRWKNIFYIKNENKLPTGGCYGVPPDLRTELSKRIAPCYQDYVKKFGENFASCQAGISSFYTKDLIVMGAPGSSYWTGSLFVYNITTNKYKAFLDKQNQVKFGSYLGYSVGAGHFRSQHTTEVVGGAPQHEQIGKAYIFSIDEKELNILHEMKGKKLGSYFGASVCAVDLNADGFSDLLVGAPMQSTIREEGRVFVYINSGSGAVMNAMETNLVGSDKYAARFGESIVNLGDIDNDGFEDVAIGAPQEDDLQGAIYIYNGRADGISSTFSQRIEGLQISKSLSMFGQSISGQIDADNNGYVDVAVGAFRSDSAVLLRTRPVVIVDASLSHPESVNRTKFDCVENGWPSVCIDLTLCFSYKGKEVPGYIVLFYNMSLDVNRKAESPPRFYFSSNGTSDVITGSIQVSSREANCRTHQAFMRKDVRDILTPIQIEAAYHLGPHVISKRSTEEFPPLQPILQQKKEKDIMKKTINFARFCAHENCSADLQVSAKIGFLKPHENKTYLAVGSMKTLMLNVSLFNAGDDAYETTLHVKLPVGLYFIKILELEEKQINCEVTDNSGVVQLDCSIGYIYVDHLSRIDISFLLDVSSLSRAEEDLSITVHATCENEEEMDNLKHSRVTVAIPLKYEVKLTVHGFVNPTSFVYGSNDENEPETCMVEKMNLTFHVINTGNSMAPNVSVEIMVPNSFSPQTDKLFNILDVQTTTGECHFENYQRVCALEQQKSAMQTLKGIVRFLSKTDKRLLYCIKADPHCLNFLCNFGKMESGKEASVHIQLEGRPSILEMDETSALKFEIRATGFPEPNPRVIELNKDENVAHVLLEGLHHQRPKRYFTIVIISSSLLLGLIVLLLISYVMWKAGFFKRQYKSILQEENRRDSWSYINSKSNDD

What follows are molecules tested against Integrin alpha-4 (Homo sapiens) (UniProt P13612) (assay: blockers of LDV-FITC ligand binding on VLA-4 – Jurkat cells, Mn2+ activated, primary screen (AID 529;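 on inhibition: 0% = Mn2+ stimulated cells lacking compound and 100% = ligand binding without Mn2+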)). Details: LDV-FITC binding with Mn2+, flow cytometry; hits give high values, screened at 10 µM (by protocol), 100% = Mn2+-driven binding gain fully reversed unless noted.
For `COc1cc(OC)cc(-c2nnc(Nc3nc4c(F)cccc4s3)o2)c1`, the inhibition was inactive: -21.3%.
`Cc1ccc2c(C)nc(Nc3nc(CSc4nnnn4-c4ccccc4)cc(=O)[nH]3)nc2c1` was tested, and the inhibition was inactive: 16.5%.
With `COCCN(CCOC)S(=O)(=O)c1ccc(C(=O)Nc2nc(C)c(C(C)=O)s2)cc1` the inhibition was “inconclusive”.
With `COC(=O)c1cc2ccsc2n1Cc1cc(=O)n2ccccc2n1` the inhibition was “inconclusive”.
With `CCOc1ccccc1N1CSC2=C(C#N)C(c3c(OC)ccc4ccccc34)CC(=O)N2C1` (stereo not given) the inhibition was “inconclusive”.
In the case of `COc1cccc(NC(=O)Cn2cc3c(n2)CCCCC3)c1`, the inhibition is reported as “inconclusive”.
With `COc1ccc2cc3cc(C(=O)Nc4ccc5c(c4)OCCO5)oc3nc2c1` the inhibition was “inconclusive”.
In the case of `Cc1onc(-c2ccccc2)c1C(=O)NC(CC(=O)O)c1ccc(OC(C)C)cc1` (stereo not given), the inhibition is reported as active: 86.5%.
In the case of `CCOc1cc2oc(=O)c3c(c2cc1Cl)CCC3`, the inhibition is reported as “inconclusive”.
With `Cc1ccc(-n2c(=O)c(C#N)cc3c(=O)n4ccccc4nc32)cc1` the inhibition was “inconclusive”.
In the case of `Cc1ccccc1-c1nc(CN2CCC(C(=O)NCc3cccnc3)CC2)c(C)o1`, the inhibition is reported as inactive: 11%.
`CC(C)NC(=O)C1CCN(C(=O)c2cc3sccc3n2Cc2ccc(F)cc2)CC1` was tested, and the inhibition was “inconclusive”.
For `COc1cc(C(c2sc3nc(C)nn3c2O)N2CCC3(CC2)OCCO3)cc(OC)c1OC` (stereo not given), the inhibition was “inconclusive”.
With `COC(=O)c1ccc(-c2sc3nc(N4CCOCC4)c4c(c3c2N)CCCC4)o1` the inhibition was “inconclusive”.
With `CCn1cc(C(=O)N2CCOCC2)c(=O)c2cc(S(=O)(=O)N(C)C)ccc21` the inhibition was “inconclusive”.
For `N#Cc1c(-c2ccc(Cl)cc2Cl)nc2n(c1=O)CCS2`, the inhibition was “inconclusive”.
In the case of `CCc1ccc2nc(NC(=O)CSCc3c(C)noc3C)sc2c1`, the inhibition is reported as inactive: -4.5%.
With `COc1ccc(CCNC(=O)c2ccc3c(c2)NC(=O)C(N2CCOCC2)S3)cc1OC` (stereo not given) the inhibition was “inconclusive”.
For `Cn1c(=O)n(C)c2cc(/C=N/n3cnnc3)ccc21`, the inhibition was “inconclusive”.
`O=C(NCCCN1CCCC1)c1cccc(N2CCCC2=O)c1` was tested, and the inhibition was inactive: 19%.
`O=C1CCN2C=Nc3cccc4ccc1c2c34` was tested, and the inhibition was “inconclusive”.
With `CCc1ccc(S(=O)(=O)NCc2csc(-c3ccccc3)n2)s1` the inhibition was “inconclusive”.
In the case of `CCCNC(=O)c1cc(S(=O)(=O)N2CCc3ccccc32)ccc1F`, the inhibition is reported as “inconclusive”.
`Cc1cccn2c(=O)c3cc(C(=O)N4CCc5ccccc5C4)n(C)c3nc12` was tested, and the inhibition was inactive: 24%.
In the case of `COCCn1nnnc1C(c1ccccc1OC)N1CCc2ccccc2C1` (stereo not given), the inhibition is reported as inactive: 0.3%.
With `CCc1ccc(CNC(=O)CN2C(=O)COc3ccccc32)cc1` the inhibition was active: 52%.
With `O=C(Nc1nc2ccc(S(=O)(=O)N3CCCC3)cc2s1)C1CCCO1` (stereo not given) the inhibition was inactive: -33.5% [hits give high values, 100% = Mn2+-driven binding gain fully reversed, screened at 10 µM (by protocol)].
`O=C(CCS(=O)(=O)c1ccc(Br)cc1)NCc1cccs1` was tested, and the inhibition was “inconclusive”.
For `O=C(CCCn1c(=S)[nH]c2ccc(Br)cc2c1=O)N1CCN(c2ccccn2)CC1`, the inhibition was inactive: -14%.
For `COc1cccc(Cn2nnc(C(=O)Nc3cc(C)ccc3OC)c2N)c1`, the inhibition was “inconclusive”.
In the case of `Cn1c(=O)oc2cc(S(=O)(=O)NCCC(=O)NC3CCCC3)ccc21`, the inhibition is reported as “inconclusive”.
`CN(C)c1ccc(CNC2CC(C)(C)NC(C)(C)C2)cc1` was tested, and the inhibition was inactive: -18.5%.
With `O=C(CN1C(=O)CSc2ncccc21)N1CCOCC1` the inhibition was inactive: -1% [hits give high values, 100% = Mn2+-driven binding gain fully reversed, screened at 10 µM (by protocol)].
`Cc1ccc(C)c(N2CCN(C(=O)CN(C)S(=O)(=O)c3cnc[nH]3)CC2)c1` was tested, and the inhibition was inactive: 3%.
In the case of `Cc1ccc(-c2nnn(CC(=O)N(CC(=O)NC3CCCCC3)c3cnc4ccccc4c3)n2)o1`, the inhibition is reported as inactive: -1.5%.
For `COCCCNC(=O)CSC1=Nc2ccccc2C2=NC(CC(=O)NCc3ccccc3)C(=O)N12` (stereo not given), the inhibition was “inconclusive”.
`Cc1ccc(-c2nc(CS(=O)(=O)CC(=O)NCCCN3CCN(C)CC3)c(C)o2)cc1` was tested, and the inhibition was “inconclusive”.
With `O=C(O)c1ccc(Cl)c2c1C1C=CCC1C(c1ccccn1)N2` (stereo not given) the inhibition was “inconclusive”.
For `CC(C(=O)NCc1cccs1)n1cccc1` (stereo not given), the inhibition was “inconclusive”.
With `COC(=O)Cn1cnc2sc(C)c(S(=O)(=O)N3CCN(c4ccccc4OC)CC3)c2c1=O` the inhibition was “inconclusive”.
With `CC(C(=O)Oc1ccc2c(c1)OCO2)N1C(=O)c2ccccc2C1=O` (stereo not given) the inhibition was inactive: -8.5%.
For `CCOC(=O)CNc1c(-c2ccc(F)cc2)nc2cnccn12`, the inhibition was “inconclusive”.
For `COc1ccccc1C(=O)N1CCN=C1SC`, the inhibition was “inconclusive”.
`Cc1ccc(S(=O)(=O)N(CC(=O)O)Cc2ccccc2)cc1` was tested, and the inhibition was “inconclusive”.
For `CC(=O)NC(Cc1cc(C)ccc1C)C(=O)N1CCN(C(=O)Nc2ccc(C(C)=O)cc2)CC1` (stereo not given), the inhibition was inactive: -20.5%.
